The values below come from article PMC6377682.

The chains behind the UniProt entries cited, without tags or fusion partners.
UniProt P36873: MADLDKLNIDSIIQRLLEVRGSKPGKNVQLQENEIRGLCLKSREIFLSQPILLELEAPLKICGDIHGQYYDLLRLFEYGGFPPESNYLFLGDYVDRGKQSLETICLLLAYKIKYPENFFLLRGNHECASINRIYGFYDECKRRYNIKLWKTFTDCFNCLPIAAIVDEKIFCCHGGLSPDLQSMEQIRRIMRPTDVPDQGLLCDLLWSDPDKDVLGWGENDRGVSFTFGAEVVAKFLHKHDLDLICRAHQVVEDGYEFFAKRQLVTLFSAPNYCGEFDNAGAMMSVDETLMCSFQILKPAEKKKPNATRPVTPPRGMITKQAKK
UniProt P62140: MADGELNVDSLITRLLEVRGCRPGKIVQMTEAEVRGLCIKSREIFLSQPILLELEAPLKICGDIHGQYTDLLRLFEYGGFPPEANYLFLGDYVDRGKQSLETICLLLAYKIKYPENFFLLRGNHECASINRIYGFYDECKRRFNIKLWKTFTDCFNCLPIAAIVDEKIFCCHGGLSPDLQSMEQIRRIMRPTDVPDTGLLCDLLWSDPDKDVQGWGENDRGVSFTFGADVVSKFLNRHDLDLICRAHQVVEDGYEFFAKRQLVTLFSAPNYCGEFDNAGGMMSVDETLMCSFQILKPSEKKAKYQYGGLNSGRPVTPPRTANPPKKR

Substitutions are numbered along the chain they refer to. These are yes or no findings as the source states them, for the method shown. In cells and extracts the contact can be indirect. Here binding means that the protein was enriched with, or labelled near, the bait; the list need not be complete. Tags and fused reporters may be left off the sequences shown.

The target in experiment [1] is T1, Strep-HA tagged ASPP2 (human) (UniProt Q13625).
T1 sequence: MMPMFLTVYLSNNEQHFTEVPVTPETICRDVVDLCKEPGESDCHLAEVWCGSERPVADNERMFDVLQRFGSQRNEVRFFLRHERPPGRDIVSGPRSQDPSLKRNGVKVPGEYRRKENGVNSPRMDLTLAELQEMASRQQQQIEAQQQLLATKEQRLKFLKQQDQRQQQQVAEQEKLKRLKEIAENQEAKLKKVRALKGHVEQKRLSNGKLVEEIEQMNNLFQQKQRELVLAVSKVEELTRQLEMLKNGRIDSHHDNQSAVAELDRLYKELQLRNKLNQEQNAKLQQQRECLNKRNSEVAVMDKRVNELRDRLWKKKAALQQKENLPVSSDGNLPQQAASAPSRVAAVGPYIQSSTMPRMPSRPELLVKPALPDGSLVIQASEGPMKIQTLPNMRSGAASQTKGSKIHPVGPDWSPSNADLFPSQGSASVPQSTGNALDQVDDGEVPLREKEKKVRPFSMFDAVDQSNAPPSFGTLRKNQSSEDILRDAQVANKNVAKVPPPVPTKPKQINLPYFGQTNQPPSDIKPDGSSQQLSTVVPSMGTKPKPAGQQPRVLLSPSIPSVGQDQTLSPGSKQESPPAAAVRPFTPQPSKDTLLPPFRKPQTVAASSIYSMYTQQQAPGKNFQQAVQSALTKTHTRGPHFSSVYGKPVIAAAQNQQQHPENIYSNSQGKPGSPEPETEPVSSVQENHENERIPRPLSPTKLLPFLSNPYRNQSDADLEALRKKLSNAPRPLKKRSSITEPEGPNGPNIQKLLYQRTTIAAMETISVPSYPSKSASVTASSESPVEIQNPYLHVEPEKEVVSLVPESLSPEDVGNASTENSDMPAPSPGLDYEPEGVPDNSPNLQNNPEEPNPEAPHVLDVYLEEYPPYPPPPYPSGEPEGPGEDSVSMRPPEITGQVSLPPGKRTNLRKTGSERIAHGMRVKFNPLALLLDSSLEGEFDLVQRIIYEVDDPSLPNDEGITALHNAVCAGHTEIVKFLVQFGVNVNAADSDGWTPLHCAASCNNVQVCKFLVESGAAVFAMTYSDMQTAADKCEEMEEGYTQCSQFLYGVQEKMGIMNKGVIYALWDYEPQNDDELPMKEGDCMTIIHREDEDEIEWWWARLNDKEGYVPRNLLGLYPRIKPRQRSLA
The experiment is described as follows: affinity purification with mass spectrometry; Strep-HA tagged bait stably expressed in HEK Flp-In 293 T-REx cells; Strep-Tactin sepharose, HNN lysis buffer (50 mM HEPES pH 7.5, 150 mM NaCl, 50 mM NaF, 0.5% Igepal CA-630), biotin elution; quantitative LC-MS/MS, three biological replicates.

The target of experiment [2] is T2, Strep-HA tagged ASPP2^KVK (ASPP2^D1091K/E1092V/E1094K) (human) (UniProt Q13625).
T2 sequence: T1 sequence with D1091K, E1092V, E1094K
Described as above.

“endogenous PP1γ1 of HEK293T cells (from UniProt P36873 1-323) (enzyme)”: the binding entry in experiment [1] and in experiment [2] was “binds” in each case.
For the substance “endogenous PP1β of HEK293T cells (from UniProt P62140 1-327) (enzyme)”, the binding entry in experiment [1] and in experiment [2] was “binds” each time.
